Source: article doi:10.1101/643114
These are yes or no findings as the source states them, for the method shown. Binding seen in cells or lysates may run through a third protein. Some entries that bind do so weakly or less than the wild type.

Protein sequences, listed by entry. Tags and fused reporters are not part of them.
UniProt Q9H6I2: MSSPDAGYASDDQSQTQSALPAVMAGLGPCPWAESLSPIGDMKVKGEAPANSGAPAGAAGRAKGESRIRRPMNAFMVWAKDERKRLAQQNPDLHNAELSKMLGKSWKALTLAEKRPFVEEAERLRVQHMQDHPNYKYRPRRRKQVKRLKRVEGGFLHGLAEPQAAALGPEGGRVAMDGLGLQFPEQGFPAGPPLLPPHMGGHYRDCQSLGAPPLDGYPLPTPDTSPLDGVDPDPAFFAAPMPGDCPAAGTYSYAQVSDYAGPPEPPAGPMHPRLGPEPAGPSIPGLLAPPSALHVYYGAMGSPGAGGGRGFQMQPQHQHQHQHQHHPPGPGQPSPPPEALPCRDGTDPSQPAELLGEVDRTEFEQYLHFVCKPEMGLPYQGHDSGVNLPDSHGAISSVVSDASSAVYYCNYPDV
UniProt P48431: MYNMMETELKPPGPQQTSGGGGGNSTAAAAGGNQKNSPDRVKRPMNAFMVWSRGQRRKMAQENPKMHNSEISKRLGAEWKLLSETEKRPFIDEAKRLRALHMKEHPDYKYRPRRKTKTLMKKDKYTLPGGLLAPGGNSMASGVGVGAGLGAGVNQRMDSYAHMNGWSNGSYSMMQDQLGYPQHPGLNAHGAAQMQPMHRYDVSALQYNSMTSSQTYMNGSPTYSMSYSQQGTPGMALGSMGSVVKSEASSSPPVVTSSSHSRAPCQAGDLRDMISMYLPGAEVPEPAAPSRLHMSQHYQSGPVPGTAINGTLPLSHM
UniProt Q9H9S0: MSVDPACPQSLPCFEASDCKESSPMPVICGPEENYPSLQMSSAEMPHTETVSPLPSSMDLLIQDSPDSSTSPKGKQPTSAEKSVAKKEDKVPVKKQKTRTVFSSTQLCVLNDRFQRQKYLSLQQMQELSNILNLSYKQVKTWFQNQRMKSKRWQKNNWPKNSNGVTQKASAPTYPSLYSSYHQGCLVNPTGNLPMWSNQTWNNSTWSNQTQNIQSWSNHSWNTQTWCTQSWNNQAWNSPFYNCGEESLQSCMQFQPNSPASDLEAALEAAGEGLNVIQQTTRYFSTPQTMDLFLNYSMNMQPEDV
UniProt Q01860: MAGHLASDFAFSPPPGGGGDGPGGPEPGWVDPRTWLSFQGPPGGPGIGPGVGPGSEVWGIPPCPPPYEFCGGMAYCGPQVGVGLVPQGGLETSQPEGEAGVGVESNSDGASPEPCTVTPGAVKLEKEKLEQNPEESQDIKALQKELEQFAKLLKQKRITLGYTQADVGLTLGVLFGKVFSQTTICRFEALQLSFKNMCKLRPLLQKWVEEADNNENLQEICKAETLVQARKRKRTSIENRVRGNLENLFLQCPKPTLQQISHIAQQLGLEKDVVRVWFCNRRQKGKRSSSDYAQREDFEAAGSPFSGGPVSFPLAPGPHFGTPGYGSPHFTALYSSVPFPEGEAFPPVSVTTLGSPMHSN

How the values were obtained:
[1] = molecular target: SOX17 (human (endogenous in TCam-2)) (UniProt Q9H6I2); assay: co-IP
[2] = molecular target: SOX2 (human (endogenous in 2102EP)) (UniProt P48431); assay: co-IP

Row | binding [1] | binding [2] | Substance
1 | no binding | – | NANOG (from UniProt Q9H9S0 1-305)
2 | binds | – | OCT4 (TCam-2 cells) (from UniProt Q01860 1-360)
3 | – | binds | OCT4 (2102EP cells) (from UniProt Q01860 1-360)
